Laboratory results published in paper PMC10876309, “Two Main Cancer Biomarkers as Molecular Targets of Binase Antitumor Activity” (BioMed Research International, 2024).
No constants are given. Whether binding was seen depends on the method and setting. Binding seen in cells or lysates may run through a third protein. Some binding calls cover weakened binding; strength is not graded here.

Molecular target: epidermal growth factor receptor (EGFR) (human (endogenous in BT-20)) (UniProt P00533)
Test: co-IP; 20 μg purified binase incubated with 1000 μg cell protein lysate for 15 min at 37°C; anti-EGFR (sc-120, BT-20 lysate) or anti-pan Ras (sc-166691, ROSE 199 A2/5 lysate) or control IgG overnight at 4°C; Protein A/G Sepharose beads; blot with anti-binase antibodies; only the binder purified

B1: binase, ribonuclease from Bacillus pumilus (enzyme, UniProt P00649 54-162, looked up)
chain: AVINTFDGVADYLIRYKRLPDNYITKSQASALGWVASKGNLAEVAPGKSIGGDVFSNREGRLPSASGRTWREADINYVSGFRNADRLVYSSDWLIYKTTDHYATFTRIR
notes: binase, ribonuclease of Bacillus pumilus, 12.3 kDa, pI 9.5; also called bacterial ribonuclease binase; cytotoxic ribonuclease from Bacillus pumilus; source: purified as described earlier [21, 22]
  binding: binds
